PubChem BioAssay AID1259308 – NCATS, 2017

- Aim: 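Genes whose loss raises luciferase production in HEK293 cells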 (primary screen)
- Cells: human HEK293 embryonic kidney cells stably expressing firefly luciferase (HEK-CMV-Luc2-Hygro)
- Reagents: single siRNA against human genes, 0.8 pmol siRNA per well
- Time to read-out: 72 h
- Measured: 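Reporter luminescence and viable-cell signal on separate replicate plates, given as percent of non-targeting control and median/MAD z-scores, plus per-cell luciferase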
- Scale: total luciferase, z-score and total luciferase, % of control: higher = more reporter protein produced; luciferase per cell, z-score: higher = more reporter output per viable cell; viable cells, % of control: higher = more viable cells
- Call rule: 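Active when the median/MAD z-score for overall luciferase is greater than 3; a gene was taken forward for validation with new siRNAs if at least two of its three siRNAs passed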
- Calls: active = raised luciferase; inactive = no rise
This is one part, drawn at random, of about 59,000 reagents. Over the whole deposit, about 1,510 (2.6%) got an active call. 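Calls use total luciferase alone and ignore viability, so some active siRNAs may act by altering cell number.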

Gene | PubChem SID | total luciferase, z-score | total luciferase, % of control | luciferase per cell, z-score | viable cells, % of control | outcome
EPB41L3 | SID160735535 | -0.352 | 74.9 | -0.745 | 102 | inactive
EPB41L3 | SID160735536 | 0.168 | 85.2 | 0.552 | 82.4 | inactive
EPB41L3 | SID160735537 | 2.18 | 125 | 3.01 | 63.3 | inactive
COQ2 | SID160738566 | 0.101 | 83.9 | -0.201 | 98.8 | inactive
COQ2 | SID160738567 | -0.397 | 74 | -0.359 | 90.9 | inactive
COQ2 | SID160738568 | 1.39 | 110 | 0.377 | 111 | inactive
PTPRCAP | SID160724017 | 0.415 | 90.1 | 0.0814 | 98.6 | inactive
PTPRCAP | SID160724018 | -0.634 | 69.3 | -0.666 | 92.3 | inactive
PTPRCAP | SID160724019 | 1.31 | 108 | 1.26 | 86.6 | inactive

Next part, starting with the last 2 of the part before.
Gene | PubChem SID | total luciferase, z-score | total luciferase, % of control | luciferase per cell, z-score | viable cells, % of control | outcome
PTPRCAP | SID160724018 | -0.634 | 69.3 | -0.666 | 92.3 | inactive
PTPRCAP | SID160724019 | 1.31 | 108 | 1.26 | 86.6 | inactive
SNUPN | SID160724979 | 0.172 | 85.3 | -0.0629 | 96.9 | inactive
SNUPN | SID160724987 | -0.751 | 67 | -0.326 | 81.5 | inactive
SNUPN | SID160724993 | -0.935 | 63.3 | -1.2 | 97.1 | inactive
TYMS | SID160718487 | -0.0559 | 80.8 | 0.276 | 83.9 | inactive
TYMS | SID160718488 | -0.0184 | 81.5 | -0.0148 | 91.5 | inactive
TYMS | SID160718490 | -0.802 | 65.9 | -0.428 | 82.5 | inactive
ADH5P4 | SID160768610 | -0.331 | 75.3 | -0.709 | 101 | inactive
ADH5P4 | SID160768611 | -1.4 | 54 | -0.252 | 64.5 | inactive
ADH5P4 | SID160768613 | 2.07 | 123 | 1.95 | 82.2 | inactive
GCNA | SID160754552 | 2.08 | 123 | 1.92 | 83.2 | inactive
GCNA | SID160754553 | 0.821 | 98.2 | 1 | 84.3 | inactive
GCNA | SID160754556 | 0.78 | 97.4 | 1.25 | 78.3 | inactive
ZNF385D | SID160749356 | 0.237 | 86.6 | 0.555 | 83.6 | inactive
ZNF385D | SID160749357 | 1.38 | 109 | 0.811 | 98.8 | inactive
ZNF385D | SID160749358 | 1.58 | 113 | 0.958 | 98.4 | inactive
